From publication PMC10609173, “Antiplasmodial and Antileishmanial Activities of a New Limonoid and Other Constituents from the Stem Bark of Khaya senegalensis” (Molecules, 2023)

Assays:
[1] = system: chloroquine-sensitive 3D7 strain of Plasmodium falciparum (Pf3D7); assay: Antiplasmodial SYBR Green I fluorescence assay, Pf3D7 strain; assay type: cell-based; conditions: SI = CC50 (RAW)/IC50 (Pf3D7)
Excerpt: (§1) The parasite strains used in this study are continuously cultured at the Antimicrobial and Biocontrol Agents Unit of the University of Yaoundé I, and were graciously provided by BEI Resources (https://www.beiresources.org (accessed on 16 February 2019)). They comprise the Leishmania donovani strain (1S(MHOM/SD/62/1S), the multiresistant (PfDd2), and the chloroquine-sensitive (Pf3D7-(MRA-102)) strains of Plasmodium falciparum. RPMI 1640 media supplemented with 0.2% sodium bicarbonate (Sigma Aldrich, Billings, MT, USA), 0.5% Albumax II (Gibco), 1% hypoxanthine 100X (Gibco, Billings, MT, USA), 25 mM HEPES, and 0.04% gentamicin (Sigma Aldrich) was used to sustain P. falciparum strains in sterile petri dishes. Fresh red blood cells from healthy O^+ human volunteers were also added to the medium. These cells were suspended at 4% hematocrit (v/v) and incubated at 37 °C in a humidified environment with 5% CO2. To regularly maintain the culture, fresh medium was added to the culture every day. Thin blood smears stained with 10% Giemsa were used to microscopically monitor cell-cycle transition and parasitemia under immersion oil.
(§2) The antiplasmodial efficacy of the samples was evaluated using the SYBR Green I-based fluorescence assay, as previously reported by Smilkstein et al., on a sorbitol-synchronized ring stage culture of Plasmodium falciparum (PfDd2 and Pf3D7 strains). The test relies on the development of intense fluorescence following SYBR green binding to the exposed DNA found in wells containing healthy cells. Ninety microliters of parasites prepared with 1% hematocrit and 2% parasitemia and 10 μL of test sample extracts, fractions, isolated chemicals, chloroquine, and artemisinin were each added in triplicate into wells of a flat-bottomed microplate. The final test concentration values for the samples varied from 50 μg/mL-0.08 μg/mL and 100 μg/mL-0.16 μg/mL for extract/fractions. Following a 72 h incubation at 37 °C, 100 μL of SYBR Green I solution prepared with lysis buffer (0.2 μL of 10,000 SYBR Green I per mL of lysis buffer) made of EDTA (5 mM), Tris (20 mM; pH 7.5), Triton X-100 (0.08%; v/v), and saponin (0.008%; m/v) was added to each well. Fluorescence measurements were taken using an Infinite M200 microplate reader (Tecan, MT, USA) at emission and excitation wavelengths of 538 and 485 nm, respectively.
(§3) The resulting fluorescence readings were used to calculate the growth inhibition percentages relative to the negative control for each sample and for each of the tested doses. GraphPad Prism 8.0 software was used to generate concentration-response curves from the nonlinear regression fit to determine the median inhibitory or cytotoxic concentration (IC50/CC50). The resistance index (RI) for antiplasmodial tests was calculated as the ratio between the samples’ IC50 values for the chloroquine-sensitive strain 3D7 and the multiresistant strain Dd2 [69]. Inhibitors with an RI value below 1 were considered to act preferentially on the resistant strain. Based on each inhibitor’s antiparasitic efficacy (IC50) and cell toxicity (CC50), selectivity indices (SI) were calculated [SI = CC50 (RAW)/IC50 (Parasites)]. Samples were classified as poorly toxic to RAW cells if their SI values were greater than 10 [70].

[2] = system: multidrug-resistant Dd2 strain of Plasmodium falciparum (PfDd2); assay: Antiplasmodial SYBR Green I fluorescence assay, PfDd2 strain; assay type: cell-based; conditions: for SI_PfDd2: SI = CC50 (RAW)/IC50 (PfDd2); for Resistance Index (RI): ratio between IC50 values for 3D7 and Dd2 strains
Excerpt: as §1, §2, §3

SMILES	SI_Pf3D7 [1]	SI_PfDd2 [2]	Resistance Index (RI) [2]
C=C(C)[C@@H]1CC[C@]2(C(=O)O)CC[C@]3(C)[C@H](CC[C@@H]4[C@@]5(C)C[C@@H](O)[C@H](O)C(C)(C)[C@@H]5CC[C@]43C)[C@@H]12 [Alphitolic acid (3), alphitolic acid]	0.24		
COc1ccc(-c2cc(=O)c3c(O)c(OC)c(OC)cc3o2)cc1OC [Belamcanidin (8), Belamcanidin]	>3.82	>7.84	0.48
CC1(C)CC[C@]2(C(=O)O)CC[C@]3(C)C(=CCC4[C@@]5(C)C[C@@H](O)[C@H](O)C(CO)(CO)C5CC[C@]43C)C2[C@@H]1O (stereo partly drawn) [Bellericagenin B (2), bellericagenin B]			0.31
Oc1cc(O)c2c(c1)O[C@H](c1ccc(O)c(O)c1)[C@@H](O)C2 [Catechin (9), catechin]	>3.57		
COC(=O)[C@H](O)[C@@H]1[C@@]2(C)[C@H]3CC[C@@]4(C)[C@H](c5ccoc5)OC(=O)C[C@@]45O[C@H]4C(=O)[C@@]1(C)C[C@]2(OC(C)=O)[C@@H]4[C@@]35O [Khayanolide E (6), khayanolide E]			0.24
C=C1[C@@H]2CC[C@@]3(C)[C@H](c4ccoc4)OC(=O)C[C@]13O[C@H]1CC(=O)C(C)(C)[C@H](CC(=O)OC)[C@]12C [Methylangolensate (4), methyl angolensate]	0.44		0.12
CC1(C)CC[C@]2(C(=O)O)CC[C@]3(C)C(=CC[C@@H]4[C@@]5(C)CC[C@H](O)C(C)(C)[C@@H]5CC[C@]43C)[C@@H]2C1 [Oleanolic acid (7), oleanolic acid]	˃4.27	˃9.17	0.47
C=C1C2C(OC3CC(=O)OC4(C)COC(=O)CC4C32C)C(OC(=O)C(O)C(C)CC)C2(C)C(c3ccoc3)CC(=O)C12O (stereo not drawn) [Rohituka-3 (5), rohituka-3]	>5.88	>25.13	0.23
